In publication PMC8213027:
These are yes or no findings as the source states them, for the method shown. In cells and extracts the contact can be indirect. Some results given as binding are weak or reduced against the parent protein; the word gives no strength. Tags and fused reporters may be left off the sequences shown.

The chains behind the UniProt entries cited, without tags or fusion partners.
UniProt Q9NTX7: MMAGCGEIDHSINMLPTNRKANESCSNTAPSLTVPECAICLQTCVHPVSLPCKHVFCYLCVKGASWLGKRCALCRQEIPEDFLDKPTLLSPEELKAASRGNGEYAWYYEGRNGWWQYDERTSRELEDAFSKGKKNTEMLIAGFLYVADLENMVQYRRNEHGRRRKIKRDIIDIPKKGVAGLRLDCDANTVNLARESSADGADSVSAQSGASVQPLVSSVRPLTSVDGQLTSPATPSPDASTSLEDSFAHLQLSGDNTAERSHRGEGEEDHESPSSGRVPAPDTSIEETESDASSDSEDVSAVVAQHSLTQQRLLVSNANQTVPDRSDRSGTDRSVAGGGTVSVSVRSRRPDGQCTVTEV

Target: RNF146-myc (UniProt Q9NTX7)
Test: co-IP; 293T cells transfected with Slug-plasmid and/or RNF146-plasmid and FHL3-plasmid; RIPA lysate; magnetic beads (Anti-Myc, Anti-HA, Anti-Flag) at 4°C for 24 h, washed with TBS; Western blot

binding | Binder
binds | FHL3-HA (protein, UniProt Q13643 1-280) MSESFDCAKCNESLYGRKYIQTDSGPYCVPCYDNTFANTCAECQQLIGHDSRELFYEDRHFHEGCFRCCRCQRSLADEPFTCQDSELLCNDCYCSAFSSQCSACGETVMPGSRKLEYGGQTWHEHCFLCSGCEQPLGSRSFVPDKGAHYCVPCYENKFAPRCARCSKTLTQGGVTYRDQPWHRECLVCTGCQTPLAGQQFTSRDEDPYCVACFGELFAPKCSSCKRPIVGLGGGKYVSFEDRHWHHNCFSCARCSTSLVGQGFVPDGDQVLCQGCSQAGP
binds | Slug-Flag (protein, UniProt O43623 1-268) MPRSFLVKKHFNASKKPNYSELDTHTVIISPYLYESYSMPVIPQPEILSSGAYSPITVWTTAAPFHAQLPNGLSPLSGYSSSLGRVSPPPPSDTSSKDHSGSESPISDEEERLQSKLSDPHAIEAEKFQCNLCNKTYSTFSGLAKHKQLHCDAQSRKSFSCKYCDKEYVSLGALKMHIRTHTLPCVCKICGKAFSRPWLLQGHIRTHTGEKPFSCPHCNRAFADRSNLRAHLQTHSDVKKYQCKNCSKTFSRMSLLHKHEESGCCVAH
